PubChem BioAssay AID2685 (National Center for Advancing Translational Sciences (NCATS), 2010)
The list shows a part of the results. The main result of the screen is listed elsewhere. These columns were measured beside it and carry no call. Most of these compounds were active or inconclusive in the main read-out, so they are no random draw. Words in brackets tell the shape of the fitted curve; partial curves, single points and poor fits give uncertain potencies.

Assay: qHTS Assay for Lipid Storage Modulators in Drosophila S3 Cells;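 for cell number change: cells counted by Cell Tracker Red CMTPX staining in the red channel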
Conditions: BODIPY lipid droplet fluorescence, 18-24 h; for cell number change: measured here: cell count max response, cells fed with added oleic acid
Method in brief: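 Drosophila S3 cells got compounds at several concentrations plus oleic acid (400 uM solution). Laser-scanning cytometry with 488 nm excitation read lipid droplets at 500-530 nm and cells at 575-640 nm. Percent activity was relative to 20 uM Triacsin C.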

[1] = measured here: lipid fluorescence (Fed channel) AC50, cells fed with added oleic acid
[2] = measured here: cell number channel AC50, cells fed with added oleic acid

Which cell number change does the source give for `Nc1nc2n(c1C(=O)c1ccccc1)CCC2` here?
The cell number change was 1.21%.

And the AC50 [1]?
The AC50 was 0.116 µM [falling, full curve, poor fit].

For `O=C(/C=C\Nc1ccc2c(c1)OCO2)c1ccccn1`, which AC50 [1] is on record?
The AC50 was 0.58 µM [rising, single point].

What does the source list for `COc1cc(CC(=O)N(C)CC(=O)Nc2cc(C)ccc2C)cc(OC)c1OC`?
cell number change: 9.17%; AC50 [1]: 0.116 µM [falling, single point]

Which results are given for `NC(=O)c1ccc(/C=N/O)nc1`?
cell number change: 126%; AC50 [2]: 20.6 µM [rising, single point]; AC50 [1]: 6.51 µM [falling, single point]

Which cell number change does the source give for `O=C1NC2=C(C(=O)CCC2)C(c2cccc([N+](=O)[O-])c2)N1` (centres undefined) here?
The cell number change was -4.91%.

With `Cc1ccc(C)c(OCC(=O)NCC(C)C)c1C` as the molecule, how does the cell number change read?
Its cell number change is 32.6%.

What about the AC50 [2] of the same molecule?
Its AC50 is 4.61 µM [rising, partial curve].

What about the AC50 [1] of the same molecule?
The AC50 was 5.17 µM [rising, partial curve].

With `Cc1ccc2nc(SC(C)C(=O)N3CC(C)OC(C)C3)[nH]c2c1` (centres undefined) as the molecule, how does the cell number change read?
The cell number change was 56.6%.

What does the source list for `CCOC(=O)N1CCN(C(=O)c2ccc3c(c2)N(Cc2cccc(Cl)c2)C(=O)c2ccccc2S3=O)CC1` (centres undefined)?
cell number change: -17.5%; AC50 [1]: 29.1 µM [falling, partial curve]

Which cell number change does the source give for `COc1ccc(NC(=O)Cc2ccc(C)cc2)cc1S(=O)(=O)N1CCCCC1` here?
The cell number change was -3.63%.

And the AC50 [1]?
The AC50 was 6.51 µM [rising, partial curve, poor fit].

For `COC(=O)Nc1nncs1`, which cell number change is on record?
Its cell number change is -33.8%.

And the AC50 [2]?
The AC50 was 0.82 µM [falling, full curve, poor fit].

With `Cc1cc(C(=O)OCC(=O)NC2CCS(=O)(=O)C2)c(C)n1-c1ccccc1` (centres undefined) as the molecule, how does the cell number change read?
Its cell number change is -15.9%.

For `CN(C)S(=O)(=O)N1CCN(CC(O)COc2ccc3cc(Br)ccc3c2)CC1` (centres undefined), which cell number change is on record?
Its cell number change is -37%.

What about the AC50 [2] of the same molecule?
The AC50 was 29.1 µM [falling, single point].

What about the AC50 [1] of the same molecule?
Its AC50 is 32.6 µM [falling, single point].

With `COc1cccc(OCC(=O)NNC(=O)C(=O)Nc2ccc(OC)cc2OC)c1` as the molecule, how does the cell number change read?
Its cell number change is 1.39%.

For `COCc1[nH]nc2c1C(c1sccc1C)C(C#N)=C(N)O2` (centres undefined), which AC50 [1] is on record?
The AC50 was 29.1 µM [falling, single point].

What does the source list for `Cc1cnc(C(=O)OCC(=O)Nc2ccc(Br)c(C)c2)cn1`?
cell number change: -9.91%; AC50 [2]: 0.00461 µM [falling, full curve, poor fit]; AC50 [1]: 0.00461 µM [falling, full curve, poor fit]

With `O=C(N/N=C/c1cn(-c2ccccc2)nc1-c1cccs1)c1ccncc1` as the molecule, how does the cell number change read?
The cell number change was -1.02%.

And the AC50 [1]?
Its AC50 is 29.1 µM [rising, single point].

What does the source list for `COc1ccc(C(=O)/C=C/c2cccnc2)c(OC)c1`?
cell number change: -13.1%; AC50 [1]: 29.1 µM [falling, single point]

With `COc1cccc(OC)c1C(=O)Nc1ccc2c(c1)OCCO2` as the molecule, how does the cell number change read?
Its cell number change is -1.83%.

For `CCOC(=O)CSc1nc(-c2ccc3c(c2)OCO3)ccc1C#N`, which cell number change is on record?
Its cell number change is -12.8%.

And the AC50 [1]?
The AC50 was 29.1 µM [falling, single point].

For `CCOC(=O)Cc1nn(Cc2ccc(Cl)cc2)c(=O)c2ccccc12`, which cell number change is on record?
The cell number change was 4.78%.

What about the AC50 [2] of the same molecule?
Its AC50 is 3.26 µM [rising, single point].

And the AC50 [1]?
The AC50 was 4.61 µM [rising, single point].

Which cell number change does the source give for `COCCOC(=O)c1c(C)oc2ccc(OCc3ccccc3)cc12` here?
The cell number change was 28.8%.

And the AC50 [1]?
The AC50 was 3.66 µM [rising, single point].

Which AC50 [1] does the source give for `CCN(c1ccc(OC)cc1)S(=O)(=O)c1nnc(NC(=O)c2ccco2)s1` here?
Its AC50 is 5.8 µM [rising, single point].

Which cell number change does the source give for `COc1ccccc1CN1CC(C(=O)NCCc2ccccc2Cl)CCC1=O` (centres undefined) here?
The cell number change was 59.3%.

What about the AC50 [1] of the same molecule?
Its AC50 is 6.51 µM [rising, partial curve].

Which cell number change does the source give for `Cc1cc(/C=C2/NC(=O)NC2=O)c(C)n1-c1ccccn1` here?
Its cell number change is 4.97%.

And the AC50 [1]?
Its AC50 is 7.31 µM [falling, single point].

With `O=C(COC(=O)[C@@H]1CC(O)CN1S(=O)(=O)c1ccccc1[N+](=O)[O-])Nc1ccc2ccccc2c1` (some centres undefined) as the molecule, how does the AC50 [1] read?
Its AC50 is 0.92 µM [rising, full curve, poor fit].

Which results are given for `Cc1ccc(NC(=O)N2CCCC2C(=O)Nc2c(C)cc(C)cc2C)cc1` (centres undefined)?
cell number change: 11.5%; AC50 [1]: 29.1 µM [falling, single point]

For `COc1ccccc1N(C)S(=O)(=O)c1ccc(C(=O)Nc2ccc(N3CCOCC3)cc2)cc1`, which cell number change is on record?
The cell number change was -107%.

And the AC50 [2]?
The AC50 was 29.1 µM [falling, single point].

Which results are given for `CCCCOc1ncnc2c1[nH]c1ccc(OC)cc12`?
cell number change: 2.76%; AC50 [1]: 0.103 µM [rising, full curve, poor fit]

With `COc1ccccc1N1CCN(C2CCCN(C(=O)c3cc(C4CC4)on3)C2)CC1` (centres undefined) as the molecule, how does the cell number change read?
The cell number change was 21.4%.

And the AC50 [1]?
The AC50 was 29.1 µM [rising, single point].

With `COc1ccc(C(=O)Nc2ccc3nc4n(c(=O)c3c2)CCCC4)cc1[N+](=O)[O-]` as the molecule, how does the cell number change read?
The cell number change was -1.11%.

And the AC50 [1]?
The AC50 was 4.11 µM [rising, partial curve, poor fit].

Which cell number change does the source give for `N=c1c2c(ncn1Cc1ccco1)Oc1c(ccc3ccccc13)C2c1ccccc1` (centres undefined) here?
The cell number change was -10.5%.

What does the source list for `CCN(CC)S(=O)(=O)c1cccc(C(=O)N[C@H](C(=O)O)C(C)C)c1`?
cell number change: 2.38%; AC50 [2]: 0.116 µM [rising, full curve, poor fit]; AC50 [1]: 18.4 µM [rising, single point]

With `O=C(Cc1ccccc1F)Nc1cccc2cccnc12` as the molecule, how does the cell number change read?
The cell number change was 10.6%.

And the AC50 [2]?
Its AC50 is 4.11 µM [rising, single point].

What does the source list for `CCOC(=O)Cn1c(=O)oc2cc(S(=O)(=O)NC(C)c3ccccc3)ccc21` (centres undefined)?
cell number change: 24.1%; AC50 [1]: 0.00517 µM [falling, full curve, poor fit]

With `CN1CCN(C(=O)c2cc([N+](=O)[O-])ccc2Cl)CC1` as the molecule, how does the cell number change read?
The cell number change was 24.7%.

For `CCCC(O)(CCC)C(=O)NNc1ccc(C)cc1`, which cell number change is on record?
The cell number change was 18%.

And the AC50 [1]?
The AC50 was 0.259 µM [rising, full curve].

With `O=C(NCc1cccnc1)c1ccccc1-c1nc(-c2ccccc2)no1` as the molecule, how does the cell number change read?
Its cell number change is 20.9%.

And the AC50 [1]?
Its AC50 is 6.51 µM [rising, partial curve].

With `CCCC(=O)NNc1cc(=O)c2c(=O)n(C)c(=O)n(C)c2[nH]1` as the molecule, how does the cell number change read?
Its cell number change is 8.79%.

With `CC(C)NC(=O)/C(=C/c1cn(-c2ccccc2)nc1-c1cccc([N+](=O)[O-])c1)NC(=O)c1ccccc1` as the molecule, how does the cell number change read?
Its cell number change is -2.73%.

And the AC50 [1]?
Its AC50 is 9.2 µM [rising, single point].

What does the source list for `CCCCOc1ccc(OCCSc2nc3ccccc3n2CC(=O)O)cc1`?
cell number change: 10.8%; AC50 [1]: 8.2 µM [rising, partial curve]
